Assay results: the supplement of paper PMC10849652
The list shows a part of the results.

Chains of the proteins cited; added tags and fusions are not shown. Lines headed by an entry give the natural chain unless they say otherwise; changes in a name come on top.
UniProt Q9UJX5, whole entry, looked up: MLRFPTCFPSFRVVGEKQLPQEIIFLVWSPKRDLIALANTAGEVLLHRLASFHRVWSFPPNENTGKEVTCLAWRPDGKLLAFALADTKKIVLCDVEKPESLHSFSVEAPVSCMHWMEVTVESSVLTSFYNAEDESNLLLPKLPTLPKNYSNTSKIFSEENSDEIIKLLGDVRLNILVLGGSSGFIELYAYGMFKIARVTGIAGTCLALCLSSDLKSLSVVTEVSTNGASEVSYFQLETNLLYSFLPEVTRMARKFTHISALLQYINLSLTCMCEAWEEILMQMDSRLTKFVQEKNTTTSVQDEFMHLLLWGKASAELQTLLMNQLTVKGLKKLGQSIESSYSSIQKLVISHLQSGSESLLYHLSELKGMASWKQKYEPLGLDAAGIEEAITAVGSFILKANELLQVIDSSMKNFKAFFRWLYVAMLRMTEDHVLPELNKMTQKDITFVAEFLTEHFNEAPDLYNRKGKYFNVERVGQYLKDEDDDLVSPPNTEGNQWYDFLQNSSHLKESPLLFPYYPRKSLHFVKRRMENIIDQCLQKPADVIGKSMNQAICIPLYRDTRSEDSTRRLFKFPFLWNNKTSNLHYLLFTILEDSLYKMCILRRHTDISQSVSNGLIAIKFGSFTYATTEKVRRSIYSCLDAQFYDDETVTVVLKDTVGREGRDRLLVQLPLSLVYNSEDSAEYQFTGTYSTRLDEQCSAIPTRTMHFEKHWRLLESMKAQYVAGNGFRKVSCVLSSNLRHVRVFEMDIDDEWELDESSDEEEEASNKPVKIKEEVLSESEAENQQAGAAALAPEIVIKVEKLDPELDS
UniProt Q9Y672: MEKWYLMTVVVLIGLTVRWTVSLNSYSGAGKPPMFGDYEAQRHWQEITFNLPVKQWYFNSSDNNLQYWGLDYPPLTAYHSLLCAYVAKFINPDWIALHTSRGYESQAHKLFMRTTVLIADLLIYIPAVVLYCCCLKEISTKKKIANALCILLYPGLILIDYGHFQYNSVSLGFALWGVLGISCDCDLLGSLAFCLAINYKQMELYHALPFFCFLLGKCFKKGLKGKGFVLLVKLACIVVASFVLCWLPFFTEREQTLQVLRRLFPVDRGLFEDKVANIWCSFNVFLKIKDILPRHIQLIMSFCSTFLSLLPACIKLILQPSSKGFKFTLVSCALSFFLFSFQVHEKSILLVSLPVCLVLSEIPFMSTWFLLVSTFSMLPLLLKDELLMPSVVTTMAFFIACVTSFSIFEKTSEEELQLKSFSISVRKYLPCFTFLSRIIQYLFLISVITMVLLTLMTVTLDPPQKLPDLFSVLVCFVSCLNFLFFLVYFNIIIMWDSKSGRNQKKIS
UniProt Q9H553: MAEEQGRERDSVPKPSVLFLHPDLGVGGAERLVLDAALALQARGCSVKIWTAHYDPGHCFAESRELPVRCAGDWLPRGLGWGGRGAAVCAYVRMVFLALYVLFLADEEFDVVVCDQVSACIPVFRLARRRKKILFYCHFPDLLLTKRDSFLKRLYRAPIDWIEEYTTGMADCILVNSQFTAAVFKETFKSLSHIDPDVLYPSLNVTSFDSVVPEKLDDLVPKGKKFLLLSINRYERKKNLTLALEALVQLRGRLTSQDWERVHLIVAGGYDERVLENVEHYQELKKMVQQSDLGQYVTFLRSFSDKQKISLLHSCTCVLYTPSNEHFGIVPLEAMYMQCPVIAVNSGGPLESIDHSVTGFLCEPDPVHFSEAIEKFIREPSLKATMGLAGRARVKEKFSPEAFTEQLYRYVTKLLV
UniProt Q9Y4X0: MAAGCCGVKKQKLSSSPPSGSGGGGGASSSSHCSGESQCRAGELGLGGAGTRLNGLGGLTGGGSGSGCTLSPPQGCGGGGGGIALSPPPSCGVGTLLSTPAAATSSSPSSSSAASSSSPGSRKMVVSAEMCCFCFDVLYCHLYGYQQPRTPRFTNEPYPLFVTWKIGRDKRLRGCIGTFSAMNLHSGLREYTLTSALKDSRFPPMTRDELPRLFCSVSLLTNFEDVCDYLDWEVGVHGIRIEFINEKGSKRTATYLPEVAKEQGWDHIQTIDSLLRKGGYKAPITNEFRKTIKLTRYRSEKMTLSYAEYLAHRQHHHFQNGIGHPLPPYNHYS
UniProt P50995, whole entry, looked up: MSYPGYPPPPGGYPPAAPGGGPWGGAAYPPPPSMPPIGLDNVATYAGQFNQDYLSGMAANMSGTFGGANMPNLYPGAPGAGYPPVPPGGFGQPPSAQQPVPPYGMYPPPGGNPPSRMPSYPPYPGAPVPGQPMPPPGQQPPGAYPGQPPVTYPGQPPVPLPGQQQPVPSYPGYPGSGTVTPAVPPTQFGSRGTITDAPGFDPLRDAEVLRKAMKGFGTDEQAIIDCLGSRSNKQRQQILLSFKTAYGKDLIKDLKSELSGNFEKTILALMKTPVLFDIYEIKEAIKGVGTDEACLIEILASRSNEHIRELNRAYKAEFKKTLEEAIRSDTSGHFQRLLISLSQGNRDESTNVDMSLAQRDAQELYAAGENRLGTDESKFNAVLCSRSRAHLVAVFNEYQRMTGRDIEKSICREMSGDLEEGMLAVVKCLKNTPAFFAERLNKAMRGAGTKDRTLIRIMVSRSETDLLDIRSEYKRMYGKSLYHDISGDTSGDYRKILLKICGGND
UniProt Q01432: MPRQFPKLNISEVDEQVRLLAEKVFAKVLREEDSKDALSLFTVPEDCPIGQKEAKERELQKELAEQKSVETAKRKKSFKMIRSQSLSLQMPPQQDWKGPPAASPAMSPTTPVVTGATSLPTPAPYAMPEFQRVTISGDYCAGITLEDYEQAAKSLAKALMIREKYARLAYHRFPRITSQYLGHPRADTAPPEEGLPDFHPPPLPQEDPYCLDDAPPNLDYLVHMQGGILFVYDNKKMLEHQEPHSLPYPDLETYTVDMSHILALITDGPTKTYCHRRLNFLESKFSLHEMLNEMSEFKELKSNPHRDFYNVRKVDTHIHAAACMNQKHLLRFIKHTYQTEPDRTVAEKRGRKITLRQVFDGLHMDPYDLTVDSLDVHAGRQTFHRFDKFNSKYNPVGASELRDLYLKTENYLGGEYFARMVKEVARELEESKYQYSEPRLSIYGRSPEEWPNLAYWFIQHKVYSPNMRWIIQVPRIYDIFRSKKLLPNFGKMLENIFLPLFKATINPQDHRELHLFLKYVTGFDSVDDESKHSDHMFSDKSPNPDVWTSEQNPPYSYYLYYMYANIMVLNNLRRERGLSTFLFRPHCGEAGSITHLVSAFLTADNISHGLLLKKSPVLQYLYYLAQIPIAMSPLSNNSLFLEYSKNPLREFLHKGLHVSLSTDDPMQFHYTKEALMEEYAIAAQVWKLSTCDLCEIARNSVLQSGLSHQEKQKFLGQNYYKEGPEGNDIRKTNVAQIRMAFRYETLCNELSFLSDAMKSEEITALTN
UniProt P53680: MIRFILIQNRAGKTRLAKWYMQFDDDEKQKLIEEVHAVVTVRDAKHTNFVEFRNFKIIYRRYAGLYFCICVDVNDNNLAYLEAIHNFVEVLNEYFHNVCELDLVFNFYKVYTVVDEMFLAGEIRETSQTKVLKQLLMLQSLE
UniProt P30837: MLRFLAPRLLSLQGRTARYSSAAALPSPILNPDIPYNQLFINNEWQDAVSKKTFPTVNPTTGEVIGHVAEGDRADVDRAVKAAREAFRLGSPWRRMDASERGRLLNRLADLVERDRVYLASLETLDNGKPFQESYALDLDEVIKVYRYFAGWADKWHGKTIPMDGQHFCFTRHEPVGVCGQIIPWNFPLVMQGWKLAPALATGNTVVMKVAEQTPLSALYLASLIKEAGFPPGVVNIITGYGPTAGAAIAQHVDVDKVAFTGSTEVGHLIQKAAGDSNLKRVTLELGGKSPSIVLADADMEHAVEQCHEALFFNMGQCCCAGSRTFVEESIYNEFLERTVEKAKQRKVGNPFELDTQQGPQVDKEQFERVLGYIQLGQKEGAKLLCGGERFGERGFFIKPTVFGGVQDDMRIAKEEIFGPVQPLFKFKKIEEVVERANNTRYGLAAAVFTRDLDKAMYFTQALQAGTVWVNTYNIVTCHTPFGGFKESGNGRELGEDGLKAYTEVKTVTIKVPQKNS
UniProt Q9Y303: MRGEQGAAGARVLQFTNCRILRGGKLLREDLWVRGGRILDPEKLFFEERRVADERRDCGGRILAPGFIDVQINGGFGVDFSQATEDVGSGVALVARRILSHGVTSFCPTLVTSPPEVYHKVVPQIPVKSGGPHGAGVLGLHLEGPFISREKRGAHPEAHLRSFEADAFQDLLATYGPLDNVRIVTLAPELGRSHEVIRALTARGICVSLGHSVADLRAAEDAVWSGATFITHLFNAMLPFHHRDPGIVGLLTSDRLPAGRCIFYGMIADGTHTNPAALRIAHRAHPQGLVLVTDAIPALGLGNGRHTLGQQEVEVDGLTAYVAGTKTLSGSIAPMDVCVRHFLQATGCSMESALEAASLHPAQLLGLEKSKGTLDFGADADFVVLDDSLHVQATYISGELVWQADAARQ
UniProt Q9BT22: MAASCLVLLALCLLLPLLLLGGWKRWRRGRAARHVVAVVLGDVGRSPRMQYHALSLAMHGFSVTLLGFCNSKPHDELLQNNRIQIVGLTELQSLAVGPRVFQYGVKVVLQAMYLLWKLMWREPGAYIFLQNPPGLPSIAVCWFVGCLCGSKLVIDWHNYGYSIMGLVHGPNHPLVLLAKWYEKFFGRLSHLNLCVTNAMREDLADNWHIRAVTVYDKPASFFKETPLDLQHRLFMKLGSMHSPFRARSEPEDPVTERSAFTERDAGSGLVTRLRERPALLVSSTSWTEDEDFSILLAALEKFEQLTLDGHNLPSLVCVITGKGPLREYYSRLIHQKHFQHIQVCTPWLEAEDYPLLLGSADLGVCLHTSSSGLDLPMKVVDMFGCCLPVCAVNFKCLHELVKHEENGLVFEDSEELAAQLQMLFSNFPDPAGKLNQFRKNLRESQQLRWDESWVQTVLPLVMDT
UniProt Q92572: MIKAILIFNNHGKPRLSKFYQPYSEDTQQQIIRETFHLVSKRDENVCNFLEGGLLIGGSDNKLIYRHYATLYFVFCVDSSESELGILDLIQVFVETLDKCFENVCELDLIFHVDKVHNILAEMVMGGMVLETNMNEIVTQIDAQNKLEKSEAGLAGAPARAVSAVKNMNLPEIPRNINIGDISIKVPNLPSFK
UniProt Q9H8Y5: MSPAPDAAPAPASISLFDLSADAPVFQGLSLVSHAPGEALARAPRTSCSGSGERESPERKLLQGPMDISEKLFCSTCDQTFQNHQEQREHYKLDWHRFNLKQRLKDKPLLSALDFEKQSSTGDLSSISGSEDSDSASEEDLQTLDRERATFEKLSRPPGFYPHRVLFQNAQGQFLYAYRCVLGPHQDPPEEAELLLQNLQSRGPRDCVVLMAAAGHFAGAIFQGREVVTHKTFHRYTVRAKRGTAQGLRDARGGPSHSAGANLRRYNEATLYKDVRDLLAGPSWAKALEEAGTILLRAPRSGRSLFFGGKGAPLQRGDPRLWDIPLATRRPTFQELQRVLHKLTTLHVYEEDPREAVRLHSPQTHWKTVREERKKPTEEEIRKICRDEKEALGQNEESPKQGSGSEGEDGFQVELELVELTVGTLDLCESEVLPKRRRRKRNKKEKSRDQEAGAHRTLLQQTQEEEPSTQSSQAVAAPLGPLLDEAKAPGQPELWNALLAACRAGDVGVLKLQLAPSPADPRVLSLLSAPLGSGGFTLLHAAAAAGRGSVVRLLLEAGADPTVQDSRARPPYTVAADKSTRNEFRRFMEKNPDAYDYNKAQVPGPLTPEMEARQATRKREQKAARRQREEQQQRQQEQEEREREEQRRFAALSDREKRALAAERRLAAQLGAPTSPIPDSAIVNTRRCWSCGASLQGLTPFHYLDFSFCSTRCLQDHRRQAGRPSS
UniProt P31749: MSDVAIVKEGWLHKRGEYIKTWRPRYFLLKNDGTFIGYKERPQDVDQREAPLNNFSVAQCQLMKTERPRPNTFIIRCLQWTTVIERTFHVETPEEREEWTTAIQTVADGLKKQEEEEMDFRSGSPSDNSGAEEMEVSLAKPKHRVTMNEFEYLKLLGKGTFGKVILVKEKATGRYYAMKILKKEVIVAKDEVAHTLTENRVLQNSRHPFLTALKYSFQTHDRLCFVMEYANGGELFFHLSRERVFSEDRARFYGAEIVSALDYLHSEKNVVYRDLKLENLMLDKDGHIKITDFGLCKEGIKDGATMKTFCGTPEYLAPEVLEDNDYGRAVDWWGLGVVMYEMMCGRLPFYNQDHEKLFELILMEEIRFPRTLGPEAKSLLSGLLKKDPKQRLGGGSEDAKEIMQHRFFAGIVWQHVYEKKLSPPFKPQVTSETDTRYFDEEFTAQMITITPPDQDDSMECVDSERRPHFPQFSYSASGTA

How the values were obtained:
Assay in all cases: log2 fold change, soluble protein after heating vs DMSO (PISA); higher = thermal stabilisation; K562 lysate, 10 uM; active = over 0.2 and 3.5 SD of the protein, either way, in both replicates (recomputed)
vemurafenib = compound: CCCS(=O)(=O)Nc1ccc(F)c(C(=O)c2c[nH]c3ncc(-c4ccc(Cl)cc4)cc23)c1F [vemurafenib]
How it was run: (§1)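 Pellets of K562 cells were dounce-homogenised in PBS pH 7.4 with 1 mM MgCl2, and the crude extract was held at 1 mg/mL protein for a 30 min treatment with 10 μM compound. Aliquots were heated for 3 min over 48°C-58°C and pooled before NP-40 was added to 0.5% at 4°C. The supernatant from 21,000xg for 90 min was quantified by TMTpro 16plex LC-MS/MS with channel sums equalised. Values are reported from duplicates as log-two fold change in thermal stability relative to solvent controls.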

[1] = compound: CCCS(=O)(=O)Nc1ccc(F)c(C(=O)c2c[nH]c3ncc(Cl)cc23)c1F
How it was run: as §1

barasertib = compound: CCN(CCCOc1ccc2c(Nc3cc(CC(=O)Nc4cccc(F)c4)[nH]n3)ncnc2c1)CCOP(=O)(O)O [barasertib]
How it was run: as §1

[2] = compound: CC[C@@H]1C(=O)N(C)c2cnc(Nc3ccc(C(=O)NC4CCN(C)CC4)cc3OC)nc2N1C1CCCC1
How it was run: as §1

volasertib = compound: CC[C@@H]1C(=O)N(C)c2cnc(Nc3ccc(C(=O)N[C@H]4CC[C@H](N5CCN(CC6CC6)CC5)CC4)cc3OC)nc2N1C(C)C [volasertib]
How it was run: as §1

[3] = compound: CCn1c(C(=O)N(C2CC2)C2CC2)cc2c3c(ncn3C)c(Nc3cc(C)n(C)n3)nc21
How it was run: as §1

[4] = compound: CCn1cc(-c2ccnc3[nH]c(-c4cccc(CN(C)C)c4)cc23)c(-c2ccc(NC(=O)N(C)C)cc2)n1
How it was run: as §1

[5] = compound: CN1CCC(CNc2ccc3ncc(-c4cccc(OC(F)(F)F)c4)n3n2)CC1
How it was run: as §1

saracatinib = compound: CN1CCN(CCOc2cc(OC3CCOCC3)c3c(Nc4c(Cl)ccc5c4OCO5)ncnc3c2)CC1 [saracatinib]
How it was run: as §1

sotrastaurin = compound: CN1CCN(c2nc(C3=C(c4c[nH]c5ccccc45)C(=O)NC3=O)c3ccccc3n2)CC1 [sotrastaurin]
How it was run: as §1

Measured: log2 fold change

AP1M1 (UniProt Q9BXS5)
inactive: vemurafenib 0.009 | [1] -0.005 | barasertib -0.024 | [2] 0.006 | volasertib 0.007 | [3] -0.012 | [4] -0.067 | [5] 0.034 | saracatinib 0.007 | sotrastaurin 0.01

ANAPC4 isoform 3 (UniProt Q9UJX5)
inactive: vemurafenib 0.035 | [1] 0.027 | barasertib 0.007 | [2] 0.024 | volasertib -0.029 | [3] -0.005 | [4] -0.022 | [5] 0.01 | saracatinib 0.006 | sotrastaurin 0

ANKRD52 (UniProt Q8NB46)
inactive: vemurafenib -0.052 | [1] 0.032 | barasertib 0.029 | [2] -0.019 | volasertib 0.097 | [3] 0.063 | [4] 0.061 | [5] -0.015 | saracatinib -0.022 | sotrastaurin -0.008

ANO10 (UniProt Q9NW15)
inactive: vemurafenib -0.003 | [1] 0.022 | barasertib -0.034 | [2] -0.037 | volasertib -0.01 | [3] 0 | [4] -0.03 | [5] -0.044 | saracatinib 0 | sotrastaurin 0.025

ANKS1A (UniProt Q92625)
inactive: vemurafenib -0.008 | [1] 0.044 | barasertib 0.067 | [2] -0.088 | volasertib -0.029 | [3] -0.047 | [4] -0.265 | [5] 0.022 | saracatinib 0.031 | sotrastaurin 0.004

ALG6 (UniProt Q9Y672)
inactive: vemurafenib 0.052 | [1] 0.006 | barasertib 0.058 | [2] 0.038 | volasertib 0.088 | [3] -0.185 | [4] -0.119 | [5] 0.035 | saracatinib 0.085 | sotrastaurin 0.017

ALG2 (UniProt Q9H553)
inactive: vemurafenib 0.067 | [1] 0.007 | barasertib 0.066 | [2] -0.112 | volasertib -0.035 | [3] 0.068 | [4] -0.08 | [5] -0.007 | saracatinib 0.042 | sotrastaurin -0.02

AMMECR1 (UniProt Q9Y4X0)
inactive: vemurafenib 0.067 | [1] 0 | barasertib 0.008 | [2] -0.019 | volasertib -0.03 | [3] -0.026 | [4] -0.012 | [5] 0.032 | saracatinib 0 | sotrastaurin 0.008

AP2A1 (UniProt O95782)
inactive: vemurafenib -0.009 | [1] 0.015 | barasertib 0.011 | [2] 0.004 | volasertib -0.01 | [3] 0.005 | [4] -0.053 | [5] 0.023 | saracatinib -0.031 | sotrastaurin -0.016

ANP32A (UniProt P39687)
inactive: vemurafenib -0.025 | [1] 0.052 | barasertib -0.007 | [2] -0.011 | volasertib 0.006 | [3] -0.008 | [4] -0.085 | [5] 0.062 | saracatinib -0.033 | sotrastaurin -0.002

ANXA11 (UniProt P50995)
inactive: vemurafenib 0.02 | [1] -0.013 | barasertib 0.002 | [2] 0.024 | volasertib -0.031 | [3] 0.044 | [4] -0.049 | [5] -0.01 | saracatinib -0.009 | sotrastaurin -0.017

AP3B1 (UniProt O00203)
inactive: vemurafenib 0.024 | [1] -0.01 | barasertib 0.027 | [2] -0.014 | volasertib -0.008 | [3] -0.006 | [4] -0.043 | [5] 0.01 | saracatinib -0.023 | sotrastaurin -0.003

ALDH18A1 (UniProt P54886)
inactive: vemurafenib 0.052 | [1] -0.006 | barasertib 0.033 | [2] -0.054 | volasertib -0.033 | [3] 0.036 | [4] 0.009 | [5] -0.005 | saracatinib 0.003 | sotrastaurin 0.014

AMPD3 isoform 4 (UniProt Q01432)
inactive: vemurafenib -0.021 | [1] 0.005 | barasertib 0.017 | [2] -0.033 | volasertib -0.026 | [3] -0.029 | [4] 0.1 | [5] -0.046 | saracatinib 0.043 | sotrastaurin 0.024

AP1G2 (UniProt O75843)
inactive: vemurafenib -0.057 | [1] 0.044 | barasertib 0.011 | [2] -0.014 | volasertib -0.053 | [3] -0.003 | [4] -0.007 | [5] 0.032 | saracatinib -0.032 | sotrastaurin 0.022

AP1S2 isoform 2 (UniProt P56377)
inactive: vemurafenib -0.083 | [1] 0.006 | barasertib 0.014 | [2] -0.13 | volasertib 0.008 | [3] 0.035 | [4] -0.321 | [5] 0.184 | saracatinib 0.055 | sotrastaurin 0.056

AP2S1 (UniProt P53680)
inactive: vemurafenib -0.07 | [1] -0.023 | barasertib -0.002 | [2] -0.073 | volasertib -0.041 | [3] 0.01 | [4] -0.056 | [5] 0.016 | saracatinib -0.025 | sotrastaurin 0.042

AKT1S1 isoform 3 (UniProt Q96B36)
inactive: vemurafenib 0 | [1] -0.014 | barasertib 0.019 | [2] -0.005 | volasertib 0.009 | [3] 0.026 | [4] -0.002 | [5] 0.03 | saracatinib 0 | sotrastaurin -0.012

ALYREF (UniProt Q86V81)
inactive: vemurafenib 0.005 | [1] 0 | barasertib -0.039 | [2] 0.003 | volasertib 0.017 | [3] -0.012 | [4] 0.19 | [5] -0.06 | saracatinib 0.026 | sotrastaurin 0.012

AP3D1 isoform 5 (UniProt O14617)
inactive: vemurafenib -0.001 | [1] -0.002 | barasertib 0.036 | [2] -0.004 | volasertib 0 | [3] 0.002 | [4] -0.08 | [5] 0.034 | saracatinib 0.001 | sotrastaurin 0.013

ANAPC7 (UniProt Q9UJX3)
inactive: vemurafenib -0.026 | [1] 0.033 | barasertib -0.02 | [2] -0.035 | volasertib -0.029 | [3] 0.016 | [4] -0.022 | [5] -0.03 | saracatinib 0.025 | sotrastaurin -0.001

ALDH1B1 (UniProt P30837)
inactive: vemurafenib 0.008 | [1] 0.017 | barasertib -0.022 | [2] 0.029 | volasertib -0.013 | [3] -0.062 | [4] -0.015 | [5] 0.108 | saracatinib 0.011 | sotrastaurin 0.022

AMDHD2 isoform 3 (UniProt Q9Y303)
inactive: vemurafenib 0.009 | [1] 0.019 | barasertib -0.021 | [2] 0.003 | volasertib 0.015 | [3] -0.024 | [4] -0.031 | [5] 0.005 | saracatinib -0.007 | sotrastaurin 0.019

Random excerpt: 2 records from the list
AMDHD2 isoform 3 (UniProt Q9Y303)
inactive: vemurafenib 0.009 | [1] 0.019 | barasertib -0.021 | [2] 0.003 | volasertib 0.015 | [3] -0.024 | [4] -0.031 | [5] 0.005 | saracatinib -0.007 | sotrastaurin 0.019

ALDH1B1 (UniProt P30837)
inactive: vemurafenib 0.008 | [1] 0.017 | barasertib -0.022 | [2] 0.029 | volasertib -0.013 | [3] -0.062 | [4] -0.015 | [5] 0.108 | saracatinib 0.011 | sotrastaurin 0.022

Additional records

AKT2 (UniProt P31751)
inactive: vemurafenib 0.008 | [1] 0 | barasertib -0.026 | [2] -0.024 | volasertib -0.031 | [3] 0.025 | [4] 0.007 | [5] 0.004 | saracatinib -0.011 | sotrastaurin 0.017

ALG1 (UniProt Q9BT22)
inactive: vemurafenib -0.035 | [1] -0.01 | barasertib -0.122 | [2] 0.017 | volasertib -0.022 | [3] -0.017 | [4] -0.12 | [5] -0.054 | saracatinib 0.02 | sotrastaurin -0.014

ANK3 (UniProt Q12955)
inactive: vemurafenib -0.001 | [1] 0.042 | barasertib -0.035 | [2] -0.032 | volasertib -0.078 | [3] 0.017 | [4] -0.02 | [5] 0.013 | saracatinib 0.018 | sotrastaurin 0.011

AP3S1 (UniProt Q92572)
inactive: vemurafenib 0.047 | [1] -0.004 | barasertib 0.049 | [2] 0.073 | volasertib -0.005 | [3] -0.004 | [4] -0.113 | [5] 0.039 | saracatinib -0.01 | sotrastaurin 0.042

ANKZF1 (UniProt Q9H8Y5)
inactive: vemurafenib 0.008 | [1] 0.004 | barasertib -0.08 | [2] -0.021 | volasertib -0.053 | [3] -0.001 | [4] 0.044 | [5] -0.065 | saracatinib 0.021 | sotrastaurin -0.003

AKT1 (UniProt P31749)
inactive: vemurafenib 0.071 | [1] 0.011 | barasertib -0.023 | [2] -0.019 | volasertib -0.026 | [3] -0.031 | [4] -0.068 | [5] 0.055 | saracatinib 0.055 | sotrastaurin 0.051
